This assay has as its target T1, Swi1 fused to Gal4 DNA-binding domain (S. pombe) (UniProt Q9UUM2).
T1 sequence: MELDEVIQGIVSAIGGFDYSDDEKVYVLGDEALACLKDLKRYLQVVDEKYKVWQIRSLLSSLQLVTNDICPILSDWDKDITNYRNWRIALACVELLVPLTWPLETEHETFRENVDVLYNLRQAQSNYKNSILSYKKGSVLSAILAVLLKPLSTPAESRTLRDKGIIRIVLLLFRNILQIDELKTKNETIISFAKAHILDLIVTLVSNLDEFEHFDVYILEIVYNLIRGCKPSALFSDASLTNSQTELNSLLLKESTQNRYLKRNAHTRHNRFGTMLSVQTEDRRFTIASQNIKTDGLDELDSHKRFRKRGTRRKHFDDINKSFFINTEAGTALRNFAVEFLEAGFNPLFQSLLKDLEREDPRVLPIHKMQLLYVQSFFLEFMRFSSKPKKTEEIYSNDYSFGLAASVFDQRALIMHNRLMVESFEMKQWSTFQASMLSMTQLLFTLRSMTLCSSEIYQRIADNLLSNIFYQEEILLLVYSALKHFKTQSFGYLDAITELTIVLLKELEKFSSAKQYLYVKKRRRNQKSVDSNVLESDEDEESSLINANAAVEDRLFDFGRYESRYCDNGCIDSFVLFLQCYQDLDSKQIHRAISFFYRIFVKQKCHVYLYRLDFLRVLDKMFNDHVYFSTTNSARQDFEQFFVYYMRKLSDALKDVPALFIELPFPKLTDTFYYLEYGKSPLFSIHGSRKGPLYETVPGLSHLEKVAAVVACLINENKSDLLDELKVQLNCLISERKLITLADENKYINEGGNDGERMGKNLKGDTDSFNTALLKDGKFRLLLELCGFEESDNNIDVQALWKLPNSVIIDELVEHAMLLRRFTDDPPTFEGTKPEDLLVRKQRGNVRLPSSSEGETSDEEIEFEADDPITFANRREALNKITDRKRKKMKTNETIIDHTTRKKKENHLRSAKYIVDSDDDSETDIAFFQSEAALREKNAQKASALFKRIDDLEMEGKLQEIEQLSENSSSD
Briefly: two-hybrid; S. cerevisiae Y190 reporter strain; Gal4-DBD (pAS404) and Gal4-AD (pGAD424) fusions; growth in the presence of 3-aminotriazole (25 mM in the screen).

Results are given in words; binding and its absence hold for the method and conditions named. Binding calls can cover weak binding; strength is not graded here. Sequences can lack the tags named with a protein.

Regarding Sbp6-AD (Swi1-binding protein 6), the binding result was “binds”.
